Experimental data published in PubChem BioAssay AID2685 (National Center for Advancing Translational Sciences (NCATS), 2010).
The list shows a part of the results. The main result of the screen is listed elsewhere. These columns were measured beside it and carry no call. The list favours compounds with an active or inconclusive main result. Words in brackets tell the shape of the fitted curve; partial curves, single points and poor fits give uncertain potencies.

Assay: qHTS Assay for Lipid Storage Modulators in Drosophila S3 Cells;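 as to cell number change: cells counted by Cell Tracker Red CMTPX staining in the red channel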
Conditions: BODIPY lipid droplet fluorescence, 18-24 h; for cell number change: measured here: cell count max response, cells fed with added oleic acid
In short: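 Laser-scanning cytometry quantifies lipid droplet accumulation (500–530 nm total intensity; droplet/cell object ratio) in oleic acid-fed (400 uM added) Drosophila S3 cells treated with a concentration series. 20 uM Triacsin C defined 100% inhibition.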

[1] = measured here: cell number channel AC50, cells fed with added oleic acid
[2] = measured here: lipid fluorescence (Fed channel) AC50, cells fed with added oleic acid

Row | SMILES | cell number change | AC50 [1] | AC50 [2]
1 | COc1ccc(Cl)cc1NS(=O)(=O)c1cccc(C(=O)NC2CCC(O)CC2)c1 (stereo not given) | 26.5% | – | –
2 | O=C(CN(Cc1ccccc1Cl)C(=O)c1csnn1)NCc1ccccc1 | 3.81% | – | –
3 | O=C(NCCc1c[nH]c2ccccc12)C1CCC(Cn2c(=S)[nH]c3ccccc3c2=O)CC1 (stereo not given) | – | 2.91 µM [rising, single point] | –
4 | Cc1oc2c(c1C(=O)NCCO)CCCC2 | 6.76% | – | 18.4 µM [falling, partial curve]
5 | CC(=O)Nc1ccc(-c2csc(N/N=C(/C)c3ccccc3)n2)cc1 | 0.455% | 0.411 µM [rising, single point] | 0.411 µM [rising, partial curve, poor fit]
6 | CC(C)Cc1ccc(C(C)C(=O)Nc2ccc(O)cc2)cc1 (stereo not given) | -54.4% | 18.4 µM [falling, single point] | 0.13 µM [falling, full curve, poor fit]
7 | Cn1c(SCC(=O)N2CCCc3ccccc32)nnc1-c1c[nH]c2ccccc12 | – | 2.31 µM [rising, partial curve] | 1.46 µM [rising, partial curve]
8 | CC1CCN(CCNC(=O)C2CCCN(c3ncnc4c3nc3n4CCCCC3)C2)CC1 (stereo not given) | 19.8% | – | 29.1 µM [rising, single point]
9 | COc1cc(C(=O)NC(=S)Nc2ccc3c(c2)C(=O)N(C)C3=O)cc(OC)c1OC | 4.35% | – | 4.61 µM [rising, partial curve]
10 | CC(C)c1cc(=O)n2[nH]c(N)nc2n1 | -4.45% | – | –
11 | c1ccc2c(Nc3nc(N4CCOCC4)c4ccccc4n3)cccc2c1 | -43% | 29.1 µM [falling, single point] | 1.46 µM [rising, partial curve]
12 | O=C(Nc1ccc(S(=O)(=O)Nc2nccs2)cc1)c1cnc(Cl)c(Cl)c1 | 14.7% | – | –
13 | Cc1cccc(CC(=O)N2CCN=C2SCc2ccc([N+](=O)[O-])cc2)c1 | 14% | – | 9.2 µM [rising, partial curve]
14 | CC(C)C(C)NC(=O)COc1nc2ccccc2nc1N(C)C1CCCCC1 (stereo not given) | -3.97% | – | 29.1 µM [rising, single point]
15 | CCOc1ccc(N2CC(C(=O)Nc3ccc(S(=O)(=O)NCC4CCCO4)cc3)CC2=O)cc1 (stereo not given) | 16.7% | – | 0.0651 µM [rising, full curve, poor fit]
16 | O=C(COC(=O)c1cc(F)c(F)cc1Cl)NC1CC1 | -12.2% | – | –
17 | CC1(C)Oc2ccc(C(=O)NC3CCCC3)cc2N(CC(=O)N2CCOCC2)C1=O | – | – | 23.1 µM [rising, single point]
18 | CCOC(=O)c1cc(C(=O)NNC(=O)c2cccc([N+](=O)[O-])c2)c(C)nc1C | 32.9% | 4.61 µM [rising, partial curve] | –
19 | CCOC(=O)n1c(=O)n(Cc2ccc(F)cc2)c2ccccc21 | 39.5% | – | 6.51 µM [rising, full curve]
20 | CCOC(=O)c1ccc(NC(=O)COC)cc1 | -80.7% | 14.6 µM [falling, partial curve] | –
21 | CC1CCN(c2c(NCc3ccc(C(=O)NCc4ccccc4)cc3)c(=O)c2=O)CC1 | -29% | – | 23.1 µM [falling, single point]
22 | CCC(=O)Nc1ccc(C(=O)Cn2nc(C(=O)O)c3ccccc3c2=O)cc1 | -16.7% | – | 8.2 µM [falling, single point]
23 | Cc1nnc(N/N=C/c2cc(C)n(-c3ccc(F)cc3)c2C)n1N | -53.8% | 3.26 µM [falling, partial curve] | 2.59 µM [falling, full curve]
24 | CCn1cc([N+](=O)[O-])c(C(=O)N2N=C(c3ccc4ccccc4c3)CC2c2ccccc2O)n1 (stereo not given) | -20.3% | – | –
25 | COc1cc(/C=C2\SC(=Nc3cccnc3)NC2=O)cc(OC)c1OC | -19.2% | – | 18.4 µM [falling, single point]
26 | COc1cc(/C=N/NC(=O)c2ccc(-c3ccccc3)cc2)cc(OC)c1OC | 23.5% | 2.31 µM [rising, full curve, poor fit] | 2.06 µM [rising, partial curve]
27 | COc1ccccc1C1CCN(C(=O)c2cnn(-c3ccccc3)c2C)CC1 | 2.74% | – | 0.461 µM [rising, partial curve, poor fit]
28 | C#CCOCCOCCOCCNc1nc(N2CCN(C(=O)CCCCCCCCCCNC(=O)[C@H](CCCCN)n3cc(CCCC(=O)O)nn3)CC2)nc(N2CCN(C(=O)CCCCCCCCCCNC(=O)[C@@H]([C@H](C)O)n3cc(C)nn3)CC2)n1 | -0.984% | – | 29.1 µM [rising, single point]
29 | COc1ccccc1CNC(=O)CCNS(=O)(=O)c1ccc2c(c1)oc(=O)n2C | -23% | – | 29.1 µM [rising, single point]

3 structures out of the list, sorted by heavy-atom count, smallest number first:
Row | SMILES | cell number change | AC50 [1] | AC50 [2]
19 | CCOC(=O)n1c(=O)n(Cc2ccc(F)cc2)c2ccccc21 | 39.5% | – | 6.51 µM [rising, full curve]
12 | O=C(Nc1ccc(S(=O)(=O)Nc2nccs2)cc1)c1cnc(Cl)c(Cl)c1 | 14.7% | – | –
22 | CCC(=O)Nc1ccc(C(=O)Cn2nc(C(=O)O)c3ccccc3c2=O)cc1 | -16.7% | – | 8.2 µM [falling, single point]
